Results are given in words; binding and its absence hold for the method and conditions named. In cells and extracts the contact can be indirect. A result given as binding can be weak or reduced; the word gives no strength.

Amino acid sequences for entries named in this document (tags omitted). A change or cut given only in a name is not applied to a line headed by its entry.
UniProt Q9NVI1: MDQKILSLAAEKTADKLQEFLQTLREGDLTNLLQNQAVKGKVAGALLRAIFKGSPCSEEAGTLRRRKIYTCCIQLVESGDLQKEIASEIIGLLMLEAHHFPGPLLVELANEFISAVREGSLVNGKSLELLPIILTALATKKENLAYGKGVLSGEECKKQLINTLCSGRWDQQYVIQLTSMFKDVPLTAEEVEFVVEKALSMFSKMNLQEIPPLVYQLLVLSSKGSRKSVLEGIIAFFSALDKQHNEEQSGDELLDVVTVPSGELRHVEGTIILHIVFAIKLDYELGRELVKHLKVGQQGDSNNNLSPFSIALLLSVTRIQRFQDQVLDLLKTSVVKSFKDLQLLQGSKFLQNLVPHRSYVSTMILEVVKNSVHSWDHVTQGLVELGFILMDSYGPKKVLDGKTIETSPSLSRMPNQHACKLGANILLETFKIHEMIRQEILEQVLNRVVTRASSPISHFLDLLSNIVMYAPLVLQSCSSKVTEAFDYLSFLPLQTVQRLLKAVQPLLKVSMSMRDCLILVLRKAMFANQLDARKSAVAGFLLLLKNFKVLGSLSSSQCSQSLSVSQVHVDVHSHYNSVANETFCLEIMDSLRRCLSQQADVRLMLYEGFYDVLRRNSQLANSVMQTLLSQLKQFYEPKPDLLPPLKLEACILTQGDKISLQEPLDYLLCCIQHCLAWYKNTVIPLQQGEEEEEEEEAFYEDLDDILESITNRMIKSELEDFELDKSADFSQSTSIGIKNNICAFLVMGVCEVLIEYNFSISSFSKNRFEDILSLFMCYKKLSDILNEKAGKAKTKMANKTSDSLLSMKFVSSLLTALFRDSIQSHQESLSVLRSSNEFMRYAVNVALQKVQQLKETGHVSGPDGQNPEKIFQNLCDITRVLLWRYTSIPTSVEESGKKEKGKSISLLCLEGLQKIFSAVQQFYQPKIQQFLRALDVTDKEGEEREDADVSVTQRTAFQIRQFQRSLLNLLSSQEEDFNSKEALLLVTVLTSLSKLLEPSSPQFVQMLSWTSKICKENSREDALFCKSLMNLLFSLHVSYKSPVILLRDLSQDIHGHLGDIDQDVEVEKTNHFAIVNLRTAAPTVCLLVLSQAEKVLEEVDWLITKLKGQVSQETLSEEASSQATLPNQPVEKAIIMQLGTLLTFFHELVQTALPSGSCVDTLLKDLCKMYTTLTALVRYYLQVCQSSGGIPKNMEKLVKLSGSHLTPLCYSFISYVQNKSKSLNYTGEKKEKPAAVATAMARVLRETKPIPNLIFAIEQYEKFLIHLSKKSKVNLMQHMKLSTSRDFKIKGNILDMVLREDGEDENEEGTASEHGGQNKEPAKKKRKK
UniProt Q9GZR1: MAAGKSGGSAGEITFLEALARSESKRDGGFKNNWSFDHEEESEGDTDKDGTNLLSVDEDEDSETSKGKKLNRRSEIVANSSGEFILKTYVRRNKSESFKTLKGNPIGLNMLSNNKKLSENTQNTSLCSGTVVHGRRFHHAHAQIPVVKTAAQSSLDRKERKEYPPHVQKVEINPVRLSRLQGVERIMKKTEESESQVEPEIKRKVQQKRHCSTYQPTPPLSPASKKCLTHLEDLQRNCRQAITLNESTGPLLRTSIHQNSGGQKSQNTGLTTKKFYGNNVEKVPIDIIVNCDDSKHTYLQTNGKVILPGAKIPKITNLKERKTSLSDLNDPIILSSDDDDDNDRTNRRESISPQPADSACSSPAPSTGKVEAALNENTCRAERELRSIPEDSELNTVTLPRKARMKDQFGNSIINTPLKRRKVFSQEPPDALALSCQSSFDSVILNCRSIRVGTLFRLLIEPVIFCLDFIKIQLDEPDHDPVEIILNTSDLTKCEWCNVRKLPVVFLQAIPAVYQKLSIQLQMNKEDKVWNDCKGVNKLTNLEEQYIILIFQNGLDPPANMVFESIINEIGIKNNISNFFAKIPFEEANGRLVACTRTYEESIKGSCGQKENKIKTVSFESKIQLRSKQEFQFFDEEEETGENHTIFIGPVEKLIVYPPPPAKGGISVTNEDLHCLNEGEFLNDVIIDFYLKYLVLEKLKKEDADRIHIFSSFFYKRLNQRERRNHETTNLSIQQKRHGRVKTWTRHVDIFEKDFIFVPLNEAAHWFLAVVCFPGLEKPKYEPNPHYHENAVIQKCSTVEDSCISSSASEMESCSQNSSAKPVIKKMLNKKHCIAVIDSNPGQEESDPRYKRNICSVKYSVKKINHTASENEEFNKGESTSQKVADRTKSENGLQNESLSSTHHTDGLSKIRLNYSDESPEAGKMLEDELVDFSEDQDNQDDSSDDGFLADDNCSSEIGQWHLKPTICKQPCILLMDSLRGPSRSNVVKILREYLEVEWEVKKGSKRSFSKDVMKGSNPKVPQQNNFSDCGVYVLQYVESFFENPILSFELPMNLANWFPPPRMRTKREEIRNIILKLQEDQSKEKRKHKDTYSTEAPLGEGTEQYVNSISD

The target of this assay is GFP-FANCI (UniProt Q9NVI1). Put plainly: co-IP; GFP IP from U2OS cells cotransfected with GFP-FANCI and HA-SENP6^CI, treated with MMC (0.3 μM); immunoblotting. A general note: In western blotting, separated proteins are transferred to a membrane and probed.

For “HA-SENP6^CI (catalytically inactive SENP6 mutant) (from UniProt Q9GZR1) (enzyme)”, the binding entry is on record as “binds”.

Values taken from paper PMC4416315.
